This note sets out measurements from patent US5260210A, “Blood-brain barrier model” (priority 1990, dated 1993).

“Also recorded” adds a separate entry of the source.

This assay relates to bovine brain capillary endothelial cells. The assay can be described thus: Transmonolayer (transendothelial cell) electrical resistance in the in vitro BBB model. How it is done:
The degree of tightness of tight junctions can be also assessed by transcellular electrical resistance measurements. For transendothelial cell resistance measurements, cells were grown on a porous solid support, e.g., a filter or membrane attached to a holding device in order adequately to suspend the cellular monolayer, such as the Costar Transwell apparatus or the ICN Cellogen. […] Cells were maintained in a growth medium or physiological saline, and calomel electrodes on each of the endothelial cells are connected by a saturated KCl - 3% agar bridge. Current is passed between two Ag--AgCl electrodes and the voltage measured with a Keithly multimeter. Resistance is calculated from the change in voltage across the monolayer induced when a short current pulse (10-100 μamp) is applied. The resistance of the filter or membrane alone is subtracted. The resistance, multiplied by the surface area of the filter or membrane, yields the resistance in ohms-cm^2.
Bovine brain capillary endothelial cells were grown on polycarbonate filters in a conditioned growth medium containing either 5% or 10% PDHS. In controls, the growth medium contained 5% PDHS (.quadrature.) or 10% PDHS. […]
Bovine brain endothelial cells were dissociated and plated on tissue culture dishes in 50% MEM/FCS - 50% ADCM. […]
Resistance was then measured at various times. […]

As to `CN[C@@H]1C[C@H]2O[C@@](C)([C@@H]1OC)n1c3ccccc3c3c4c(c5c6ccccc6n2c5c31)C(=O)NC4` [Staurosporine], the “reversibility of effect of protein kinase inhibitors” value is reported as “reversible”. Besides, the “effect of protein kinase inhibitors on resistance” value (10-200 nM) was “remarkably effective in reducing resistance; also recorded: markedly reduce the resistance”.
